Measured values taken from PubChem BioAssay AID1259415 (National Center for Advancing Translational Sciences (NCATS), 2018).
Among all 410,000 compounds or so, about 18,000 (4.4%) were called active. Inconclusive results, whose numbers are uncertain, are shown with a selection of clear calls. Cut-off read from the data, not from the text of the source: active = activity change below about -60%; inconclusive = no clear call, values can overlap the other calls; inactive = above about -39%.

assay: qHTS Assay for inhibitors of the human cytomegalovirus (HCMV); conditions: HFF cells, HCMV-luciferase reporter, 72 h; at 57.5 µM; stronger effect = lower value
Outline: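 Luciferase read-out from HCMV-luciferase-infected HFFs (MOI 1 PFU/cell) 72 h post infection at 37C; compounds added after 16 h cell attachment; activity normalized between buffer-only basal and Salinomycin (10uM) inhibitor controls.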
% is set by controls: 0 for no effect and ±100 for the full control effect.

| Compound | activity change, negative = inhibition |
| --- | --- |
| O=c1cc(-c2ccccc2)oc2ccc3ccccc3c12 | inconclusive: -52.9% |
| C=CCNC(=S)NNc1nc(Nc2ccccc2)nc(N2CCCCC2)n1 | inconclusive: -48.3% |
| S=C(NCCN1CCCCC1)Nc1ccc(Br)cc1 | inconclusive: -49% |
| CCN(CC)S(=O)(=O)c1ccc(NC(=S)NC(=O)C2CCC2)cc1 | inactive: -11.9% |
| O=[N+]([O-])c1cccc(/C=N\N=C2c3ccccc3-c3ccccc32)c1O | inconclusive: -44.9% |
| O=[N+]([O-])c1ccc(-n2nnnc2CN2CCCCC2)cc1 | inconclusive: -44% |
| CCOC1(c2ccccc2)OC(=O)c2ccccc21 (centres undefined) | inconclusive: -43% |
| COc1ccc(CCN=CC2=C(O)CC(C)(C)CC2=O)cc1 | inconclusive: -44.7% |
| COc1cc(Br)c(CNc2cc(C)ccc2C)cc1OC | inconclusive: -44.4% |
| CCCCNC(=O)C(CC)Sc1nnc(-c2cccc(F)c2)c(-c2cccc(F)c2)n1 (centres undefined) | inactive: 6.38% |
| O=C(C1CCN(Cc2cn[nH]c2-c2ccc(F)cc2F)CC1)N1CCOCC1 | inactive: 40.6% |
| CC(C)CNC(=S)NC1CC2CCC(C1)N2Cc1ccccc1 (centres undefined) | inactive: -0.492% |
| Cc1[nH]c(-c2ccc(F)cc2)cc1C(=O)N1CCN(c2ccc(Cl)cc2)CC1 | inconclusive: -46.9% |
| CSCCC(NC(=O)c1ccccc1)C(=O)NNC(=O)c1ccccc1 (centres undefined) | active: -61.9% |
| CC(=O)/C(=C/N(C)C)C(=O)Nc1ccc(Cl)cc1Cl | inconclusive: -43.2% |
| COc1ccccc1C(=O)Nc1nnc(-c2ccc(Cl)cc2)o1 | inconclusive: -40.4% |
| Cn1c(N)c(C(C[N+](=O)[O-])c2c(F)cccc2Cl)c(=O)n(C)c1=O (centres undefined) | inconclusive: -45.7% |
| COc1ccc(CNC(=O)c2cc3cc(C)ccc3n2C)cc1 | active: -78.6% |
| O=C(Nc1ccccc1C(=O)NCCc1ccc(O)cc1)c1ccco1 | inconclusive: -41.7% |
| COc1cc(CNCc2ccc(OC)c3ccccc23)cc(OC)c1OC | inconclusive: -55.2% |
| CN(C)C(CNC(=O)C1CCN(S(=O)(=O)c2cccc(Cl)c2Cl)CC1)c1ccccc1 (centres undefined) | inconclusive: -44.1% |
| COCc1cc(CN2CCCC2)c(O)c2ncccc12 | active: -95.2% |
| Cc1cccc(NC(=O)CSc2nc(COc3ccccc3)nc3ccccc23)c1C | inconclusive: -44.4% |

| Compound | activity change, negative = inhibition |
| --- | --- |
| COc1cccc(NC(=O)NNS(=O)(=O)c2ccc(OC)cc2OC)c1 | inconclusive: -42.5% |
| CCCC1=Nc2cc(C(=O)N3CCCC3)ccc2Sc2ccc(C)cc21 | inactive: -5.55% |
| Cc1cc(C(=O)NC(C)Cc2ccccc2)cc(C)c1[N+](=O)[O-] (centres undefined) | inconclusive: -45.5% |
| O=C(CN1CCCCC1)Nc1c2c(nc3ccccc13)N(c1ccccc1)CC2 | inconclusive: -56.5% |
| COc1ccc(-c2cc3nc(C)c(CCC(=O)N4CCN(c5cccc(Cl)c5)CC4)c(C)n3n2)c(OC)c1 | inactive: -2.31% |
| CCN1c2ccccc2-c2nc3ccccc3n2C1c1cccnc1 (centres undefined) | inactive: 6.94% |
| CCOc1ccc(S(=O)(=O)N2CCC(C(=O)N3CCc4ccccc4C3)CC2)cc1 | inconclusive: -50.4% |
| Cc1ccccc1NC(=O)CSc1nc(-c2ccc(F)cc2)c2cccc(C)c2n1 | inconclusive: -44% |
| CCSc1ccccc1C(=O)NCCc1ccccc1 | inactive: -8.05% |
| NC(=O)c1ccc[n+](CC(=O)c2ccccc2)c1 | inactive: -5.63% |
| COc1cccc(CNC(=O)Cn2cc3c(n2)-c2c(oc(C(=O)N4CCCC4)c2C)CC3)c1OC | inconclusive: -49.7% |
| Cn1c(=O)c([N+](=O)[O-])c(NCc2ccccc2Cl)c2ccccc21 | inconclusive: -50.9% |
| Cc1ccc(-c2onc(C)c2C)cc1S(=O)(=O)N1CCCCC1 | inconclusive: -41.4% |
| CCOC(=O)c1sc2ccccc2c1S(=O)(=O)Nc1c(C)cccc1C | inactive: -13% |
| COc1ccccc1OCc1csc(NC(=O)c2ccco2)n1 | inconclusive: -51.8% |
| Cn1nc(C(=O)NCc2ccccc2)c2c1-c1ccccc1SC2 | inconclusive: -57.6% |
| C/C(=N/OCC(=O)Nc1ccc(C)cc1C)c1cccs1 | inconclusive: -53.2% |
| CC(=O)N1N=C(c2c(-c3ccccc3)c3cc(Br)ccc3[nH]c2=O)CC1c1ccco1 (centres undefined) | inconclusive: -44.6% |
| Cc1ccc(CN2CCN(/N=C/c3cccs3)CC2)cc1 | inconclusive: -45.3% |
| COc1ccc(C(=O)NNC(=O)Cn2nnc(-c3ccc(OC)c(OC)c3)n2)cc1 | inconclusive: -44.4% |
| Cc1ccc(NC(=O)c2cc(NC(=O)CCCC(=O)O)ccc2Cl)cc1Cl | inconclusive: -42.7% |
| CCn1cc([N+](=O)[O-])c(C(=O)Nc2ccn(Cc3ccccc3)n2)n1 | active: -73.9% |
| Nc1ncnc2c1ncn2C1CCCO1 (centres undefined) | active: -73.5% |

For convenience, some entries already given:

| Compound | activity change, negative = inhibition |
| --- | --- |
| CN(C)C(CNC(=O)C1CCN(S(=O)(=O)c2cccc(Cl)c2Cl)CC1)c1ccccc1 (centres undefined) | inconclusive: -44.1% |
| COCc1cc(CN2CCCC2)c(O)c2ncccc12 | active: -95.2% |

(next part)

| Compound | activity change, negative = inhibition |
| --- | --- |
| O=C(/C(=C/c1ccncc1)n1ccnc1)c1ccc(Cl)cc1Cl | inconclusive: -46.6% |
| COc1ccc(Cl)cc1NC(=O)COC(=O)c1c(-c2ccccc2)noc1C | inactive: -21.5% |
| COc1ccccc1NC(=O)C1=C(C)Nc2c(C(=O)Nc3ccc(F)cc3)cnn2C1c1ccc(Cl)cc1 (centres undefined) | inconclusive: -40.8% |
| CCCC(=O)NC(c1ccccc1)c1ccc2cccnc2c1O (centres undefined) | active: -102% |
| CC(C)C(NS(=O)(=O)c1ccc2c(c1)OCCCO2)C(=O)O (centres undefined) | inconclusive: -43.4% |
| CCOc1ccc(-c2oc3ccccc3c(=O)c2O)cc1OCC | active: -64.9% |
| CCN(CC)S(=O)(=O)c1ccc(OCC2CCCCO2)c([N+](=O)[O-])c1 (centres undefined) | inactive: -16.5% |
| CN(CC(=O)Nc1ccccc1Br)c1ncnc2sccc12 | inconclusive: -47.9% |
| COc1ccc(Cl)cc1NC(=O)CN(C)C(=O)c1cc2ccccc2cc1O | inactive: 6.88% |
| Cc1ccsc1/C=N/NC(=O)c1ccc2ccccc2c1 | inactive: 62.5% |
| CCOC(=O)c1c(NC(=O)c2nn(CC)cc2Br)c(C#N)cn1-c1ccccc1 | inactive: -8.71% |
| COc1ccc(S(=O)(=O)N2CCCCCC2)cc1C(=O)N(C)CC(=O)Nc1ccc(Cl)c(Cl)c1 | inconclusive: -42.2% |
| COc1cc(OC)cc(C(=O)Nc2cc3nn(-c4ccccc4)nc3cc2Cl)c1 | inactive: 99.1% |
| O=C(CSC1=NS(=O)(=O)c2cc(Cl)ccc2N1)NCCc1ccccc1 | inconclusive: -40.9% |
| O=C(/C=C/c1ccccc1)N1CC2ON=C(c3c(F)cccc3Cl)C2C1 (centres undefined) | inactive: -8.22% |
| NC(N)=N/N=C/c1cccc(Cl)c1Cl | inconclusive: -40.8% |
| CC(C)CC(=O)N1CCN(Cc2ccc(C(F)(F)F)cc2)CC1 | inactive: -8.78% |
| COc1ccc(CNC(=O)c2ccc3ccccc3n2)cc1OC | inconclusive: -48.6% |
| COc1cccc(/C=N/n2c(-c3ccco3)nc3ccccc3c2=O)c1 | active: -64.4% |
| O=C(NCCN1C(=O)S/C(=C\c2ccc(OC(F)F)cc2)C1=O)[C@@H]1CCCN1C(=O)c1cccs1 | inconclusive: -51.1% |
| COc1ccccc1-c1nnc(SCC(=O)c2c(N)n(C3CC3)c(=O)[nH]c2=O)o1 | inactive: 3.45% |
| Oc1ccc(/C=N\Nc2nncc(-c3ccccc3)n2)cc1 | active: -65.6% |
| Cc1ccc(CNC(=O)c2ccc(COc3ccccc3)cc2)cc1 | active: -63.4% |

| Compound | activity change, negative = inhibition |
| --- | --- |
| COc1ccccc1C(=O)NCC(=O)N/N=C/c1ccc([N+](=O)[O-])cc1 | inconclusive: -46.2% |
| O=C(CCC1CCCN(C(=O)CCN2CCCCC2=O)C1)NCc1ccccc1F (centres undefined) | active: -105% |
| O=C1C=CC(=O)N1c1ccc(O)cc1 | inactive: 8.11% |
| Cc1ccc(C(c2nnnn2CCc2ccccc2)N2CCSCC2)cc1 (centres undefined) | inconclusive: -52.2% |
| COc1ccccc1C(=O)NCCCNc1ccc([N+](=O)[O-])cc1 | inactive: -22.2% |
| CCOc1ccc(CCNC(=O)CCCc2nnc3n(CC(C)C)c(=O)c4sccc4n23)cc1 | inconclusive: -44.6% |
| CN(CCC#N)C(=O)COC(=O)[C@H](Cc1ccccc1)N1C(=O)c2ccccc2C1=O | inconclusive: -41% |
| COc1cc(/C=C/C(=O)c2ccc(NS(=O)(=O)c3ccc(C)cc3)cc2)cc(OC)c1O | active: -101% |
| CCOc1ccc(/C=C/C(O)=C2/C(=O)NC3(C)CC2c2ccccc2O3)cc1OC (centres undefined) | inconclusive: -44.1% |
| O=C(NCC(O)c1ccc([N+](=O)[O-])cc1)C1CCCCC1 (centres undefined) | inconclusive: -42% |
| Cc1cc(NC(=O)COC(=O)[C@@H](NS(=O)(=O)c2ccc(Br)cc2)C(C)C)no1 | inconclusive: -44.2% |
| O=C(Cc1ccc(S(=O)(=O)N2CCOCC2)s1)Nc1ccccc1N1CCCC1 | inconclusive: -53.3% |
| O=C(NC(=S)N1CCN(c2nc(-c3ccccc3)cs2)CC1)c1cccnc1 | inconclusive: -56.9% |
| COCCNC(=O)c1cc2c(=O)[nH]c3ccccc3c2s1 | inactive: 30.6% |
| OCCNCCc1c[nH]c2ccc(OCc3ccccc3)cc12 | active: -60.3% |
| Cc1cc(N/N=C/c2cccc([N+](=O)[O-])c2)nc(-n2nc(C)cc2C)n1 | inconclusive: -46.7% |
| Cc1nc2c(cnn2-c2ccccc2Cl)c(=O)n1-c1ccc(C(C)C)cc1 | inconclusive: -55.9% |
| CCc1ccc(S(=O)(=O)c2nnn3c2nc(NCCc2ccccc2)c2sccc23)cc1 | active: -80.8% |
| COc1cccc(-c2nc(SCC(=O)Nc3ccc4c(c3)OCO4)c(-c3ccccc3)[nH]2)c1 | inconclusive: -40.1% |
| CN(C)S(=O)(=O)N(CC(=O)NCCSCc1ccccc1Cl)c1ccccc1 | inactive: -12.7% |

Look-ups from the entries so far.
Entry of `Cc1ccc(-c2onc(C)c2C)cc1S(=O)(=O)N1CCCCC1` under activity change, negative = inhibition: inconclusive: -41.4%
Entry of `COc1cccc(NC(=O)NNS(=O)(=O)c2ccc(OC)cc2OC)c1` under activity change, negative = inhibition: inconclusive: -42.5%
Entry of `CC(C)CNC(=S)NC1CC2CCC(C1)N2Cc1ccccc1` (centres undefined) under activity change, negative = inhibition: inactive: -0.492%
